{
  "source": "paper PMC4091690",
  "about": "“A Broadly Conserved G-Protein-Coupled Receptor Kinase Phosphorylation Mechanism Controls Drosophila Smoothened Activity” (PLoS Genetics, 2014)",
  "binders": {"B1": {"name": "Costal-2 (Cos2), C-terminally tagged with Renilla luciferase II (natural protein, Drosophila, UniProt O16844 1-1201, looked up)", "chain": "MEIPIQVAVRIFPHRELKDLLRSFGPTEPKKDAQAVDEGADSKDSEAQVPAAEKDNPSISETDPNGNAEQDSAADSKTIPDANGNDSGQKDYPDSAYCVQAIPISASALGLPSALPGGDPMDSIAAGLIQVGPHTVPVTHALPSSSSQEQVYHQTVFPLITLFLEGFDASVVTYGQRGQGKSYTLYGNVQDPTLTDSTEGVVQLCVRDIFSHISLHPERTYAINVGFVEICGGDVCDLLGMGNIHCTNVDAVFHWLQVGLSARQSLPAHTLFTLTLEQQWVSKEGLLQHRLSTASFSDLCGTERCGDQPPGRPLDAGLCMLEQVISTLTDPGLMYGVNGNIPYGQTTLTTLLKDSFGGRAQTLVILCVSPLEEHLPETLGNLQFAFKVQCVRNFVIMNTYSDDNTMIVQPAEPVPESNSSAGPLSQAGPGDNFGLQFAASQWSKLVTNAEGLFSKLIDSKLITEVEKEQIEEWLFLKQECEECLSSTEAMRQQKQLVPILEAEEPEDVNSEAANSESPNSDNENDTDNESHRPDLDDKIESLMEEFRDKTDALILEKHAEYLSKHPKAVMQSQDREIEAQPPEENGDDRKVSIGSRRRSVQPGASLSTAELAMLNRVASQQPPPPIDPESVVDPLESSSGEGIRQAALAAAAATAPIEQLQKKLRKLVAEIEGKQRQLREIEETIQVKQNIIAELVKNSDTRSHAKQRFHKKRAKLEAECDKAKKQLGKALVQGRDQSEIERWTTIIGHLERRLEDLSSMKHIAGESGQKVKKLQQSVGESRKQADDLQKKLRKECKLRCQMEAELAKLRESRETGKELVKAQGSPEQQGRQLKAVQARITHLNHILREKSDNLEEQPGPEQQETLRHEIRNLRGTRDLLLEERCHLDRKLKRDKVLTQKEERKLLECDEAIEAIDAAIEFKNEMITGHRSIDTSDRIQREKGEQMLMARLNRLSTEEMRTLLYKYFTKVIDLRDSSRKLELQLVQLERERDAWEWKERVLSNAVRQARLEGERNAVLLQRQHEMKLTLMLRHMAEETSASSASYGERALAPACVAPPVQASSDFDYDHFYKGGGNPSKALIKAPKPMPTGSALDKYKDKEQRSGRNIFAKFHVLTRYASAAAAGSSGSTAEESTALIESTTTATATTTSTTTTGAVGKVKDKALVSFRPEQLKRLMPAPTATKVTRQKNKIIIQDASRRN", "notes": "Costal-2 (Cos2), kinesin-like protein, Drosophila; also called Cos2-Luc; Cos2-RLucII; source: S2-R+ cells, transfected (pRmHa3.puro, induced with CuSO4), in intact cells; not shown: RLucII, C-terminal, kept"}},
  "test_in_all_cases": "FRET or BRET; BRET in intact S2-R+ cells between C-terminally GFP10-tagged truncated Smo variants (300 ng) and Cos2-RLucII (75 ng), myc-Fu (75 ng) co-transfected; cells treated with control (beta-gal), gprk2 or smo 3'UTR dsRNA, without or with myc-Gprk2; net BRET",
  "key": {"[1]": {"target": "T1, Smo^Δ651 (Drosophila Smoothened amino acids 1-651), C-terminally tagged with GFP10 (Drosophila) (UniProt P91682)", "T1 sequence": "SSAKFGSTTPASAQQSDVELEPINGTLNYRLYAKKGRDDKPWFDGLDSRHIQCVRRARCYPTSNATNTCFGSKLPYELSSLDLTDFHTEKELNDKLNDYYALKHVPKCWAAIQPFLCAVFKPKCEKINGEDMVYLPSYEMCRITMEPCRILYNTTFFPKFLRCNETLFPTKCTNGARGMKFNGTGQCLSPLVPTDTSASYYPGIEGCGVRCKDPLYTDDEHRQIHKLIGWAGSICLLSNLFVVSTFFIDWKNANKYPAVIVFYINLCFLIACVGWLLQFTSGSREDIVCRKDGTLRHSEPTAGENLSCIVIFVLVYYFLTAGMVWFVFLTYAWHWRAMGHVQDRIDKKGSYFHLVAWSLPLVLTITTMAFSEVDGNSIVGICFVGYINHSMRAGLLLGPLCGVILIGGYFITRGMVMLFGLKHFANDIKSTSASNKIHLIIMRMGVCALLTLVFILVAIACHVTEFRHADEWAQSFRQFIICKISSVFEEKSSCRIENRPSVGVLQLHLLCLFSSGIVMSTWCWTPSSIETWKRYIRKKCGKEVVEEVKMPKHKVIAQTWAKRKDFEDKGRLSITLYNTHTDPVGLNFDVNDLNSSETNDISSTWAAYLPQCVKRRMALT"}, "[2]": {"target": "T2, Smo^core (Drosophila Smoothened amino acids 1-663), C-terminally tagged with GFP10 (Drosophila) (UniProt P91682)", "T2 sequence": "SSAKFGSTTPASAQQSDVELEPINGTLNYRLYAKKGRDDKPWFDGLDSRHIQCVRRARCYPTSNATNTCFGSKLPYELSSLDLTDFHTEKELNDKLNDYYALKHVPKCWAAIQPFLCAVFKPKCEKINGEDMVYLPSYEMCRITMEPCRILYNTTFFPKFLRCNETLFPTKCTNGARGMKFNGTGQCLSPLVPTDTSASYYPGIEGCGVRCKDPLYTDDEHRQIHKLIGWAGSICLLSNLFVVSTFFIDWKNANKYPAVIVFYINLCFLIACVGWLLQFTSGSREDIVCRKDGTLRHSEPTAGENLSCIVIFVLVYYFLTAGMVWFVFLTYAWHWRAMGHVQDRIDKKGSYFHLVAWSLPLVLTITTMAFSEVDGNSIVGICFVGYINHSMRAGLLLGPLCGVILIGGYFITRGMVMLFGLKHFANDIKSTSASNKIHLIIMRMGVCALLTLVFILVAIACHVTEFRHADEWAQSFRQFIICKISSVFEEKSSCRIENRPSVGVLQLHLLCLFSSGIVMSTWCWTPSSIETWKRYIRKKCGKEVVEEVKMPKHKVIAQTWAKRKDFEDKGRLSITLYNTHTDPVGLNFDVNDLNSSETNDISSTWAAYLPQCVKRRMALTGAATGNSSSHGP"}, "[3]": {"target": "T3, Smo^Δ625 (Drosophila Smoothened amino acids 1-625), C-terminally tagged with GFP10 (Drosophila) (UniProt P91682)", "T3 sequence": "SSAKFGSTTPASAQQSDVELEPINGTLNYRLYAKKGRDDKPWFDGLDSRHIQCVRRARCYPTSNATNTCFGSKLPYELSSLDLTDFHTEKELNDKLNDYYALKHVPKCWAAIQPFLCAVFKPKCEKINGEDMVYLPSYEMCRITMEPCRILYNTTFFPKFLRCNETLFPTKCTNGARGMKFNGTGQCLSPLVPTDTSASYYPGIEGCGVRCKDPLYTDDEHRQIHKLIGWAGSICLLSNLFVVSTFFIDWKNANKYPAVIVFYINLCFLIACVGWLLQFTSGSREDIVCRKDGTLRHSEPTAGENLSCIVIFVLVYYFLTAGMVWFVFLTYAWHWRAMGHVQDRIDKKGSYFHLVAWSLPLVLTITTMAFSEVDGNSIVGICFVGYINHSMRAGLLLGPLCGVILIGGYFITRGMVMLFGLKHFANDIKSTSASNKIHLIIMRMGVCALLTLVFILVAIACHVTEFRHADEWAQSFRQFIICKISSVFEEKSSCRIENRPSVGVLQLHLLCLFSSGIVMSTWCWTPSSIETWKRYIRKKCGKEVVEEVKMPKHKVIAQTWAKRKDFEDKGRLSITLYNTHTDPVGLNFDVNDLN"}},
  "note": "These are yes or no findings as the source states them, for the method shown. Binding seen in cells or lysates may run through a third protein. Some entries that bind do so weakly or less than the wild type. Where a sequence is shown, tags or fusion partners need not be part of it.",
  "data": [
    {"binder": "B1", "values": [
      {"measurement": "binding", "setting": "[1]", "value": "binds"},
      {"measurement": "binding", "setting": "[2]", "value": "binds"},
      {"measurement": "binding", "setting": "[3]", "value": "no binding"}
    ]}
  ]
}
